No constants are given. Whether binding was seen depends on the method and setting. In cells and extracts the contact can be indirect. Some binding calls cover weakened binding; strength is not graded here.
Assays:
[1] = target: T1, dihydrolipoyl transacetylase (DLAT) (human (endogenous in A549^cisR)) (UniProt P10515); experiment: co-IP; co-immunoprecipitation showing candidate interactions with DLAT (Fig. 4b, Supplementary Fig. 4a), immunoblot
T1 sequence: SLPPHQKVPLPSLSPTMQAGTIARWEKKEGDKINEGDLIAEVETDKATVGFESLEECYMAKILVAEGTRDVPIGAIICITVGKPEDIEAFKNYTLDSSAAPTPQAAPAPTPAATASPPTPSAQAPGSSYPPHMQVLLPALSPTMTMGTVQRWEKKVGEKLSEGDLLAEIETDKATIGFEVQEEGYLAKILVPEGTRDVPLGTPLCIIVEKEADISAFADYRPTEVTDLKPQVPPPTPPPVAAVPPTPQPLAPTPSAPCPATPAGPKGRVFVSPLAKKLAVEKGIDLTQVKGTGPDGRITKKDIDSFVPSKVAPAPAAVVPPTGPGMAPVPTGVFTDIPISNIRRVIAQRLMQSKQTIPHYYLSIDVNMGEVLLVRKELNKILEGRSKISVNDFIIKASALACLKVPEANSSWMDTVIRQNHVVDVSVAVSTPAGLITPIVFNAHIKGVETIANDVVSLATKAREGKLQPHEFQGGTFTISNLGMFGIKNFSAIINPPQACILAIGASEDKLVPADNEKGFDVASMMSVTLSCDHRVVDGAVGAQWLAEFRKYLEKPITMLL

Chains of the proteins cited; added tags and fusions are not shown. Residues count along the entry.
UniProt O00411, residues 42-1230: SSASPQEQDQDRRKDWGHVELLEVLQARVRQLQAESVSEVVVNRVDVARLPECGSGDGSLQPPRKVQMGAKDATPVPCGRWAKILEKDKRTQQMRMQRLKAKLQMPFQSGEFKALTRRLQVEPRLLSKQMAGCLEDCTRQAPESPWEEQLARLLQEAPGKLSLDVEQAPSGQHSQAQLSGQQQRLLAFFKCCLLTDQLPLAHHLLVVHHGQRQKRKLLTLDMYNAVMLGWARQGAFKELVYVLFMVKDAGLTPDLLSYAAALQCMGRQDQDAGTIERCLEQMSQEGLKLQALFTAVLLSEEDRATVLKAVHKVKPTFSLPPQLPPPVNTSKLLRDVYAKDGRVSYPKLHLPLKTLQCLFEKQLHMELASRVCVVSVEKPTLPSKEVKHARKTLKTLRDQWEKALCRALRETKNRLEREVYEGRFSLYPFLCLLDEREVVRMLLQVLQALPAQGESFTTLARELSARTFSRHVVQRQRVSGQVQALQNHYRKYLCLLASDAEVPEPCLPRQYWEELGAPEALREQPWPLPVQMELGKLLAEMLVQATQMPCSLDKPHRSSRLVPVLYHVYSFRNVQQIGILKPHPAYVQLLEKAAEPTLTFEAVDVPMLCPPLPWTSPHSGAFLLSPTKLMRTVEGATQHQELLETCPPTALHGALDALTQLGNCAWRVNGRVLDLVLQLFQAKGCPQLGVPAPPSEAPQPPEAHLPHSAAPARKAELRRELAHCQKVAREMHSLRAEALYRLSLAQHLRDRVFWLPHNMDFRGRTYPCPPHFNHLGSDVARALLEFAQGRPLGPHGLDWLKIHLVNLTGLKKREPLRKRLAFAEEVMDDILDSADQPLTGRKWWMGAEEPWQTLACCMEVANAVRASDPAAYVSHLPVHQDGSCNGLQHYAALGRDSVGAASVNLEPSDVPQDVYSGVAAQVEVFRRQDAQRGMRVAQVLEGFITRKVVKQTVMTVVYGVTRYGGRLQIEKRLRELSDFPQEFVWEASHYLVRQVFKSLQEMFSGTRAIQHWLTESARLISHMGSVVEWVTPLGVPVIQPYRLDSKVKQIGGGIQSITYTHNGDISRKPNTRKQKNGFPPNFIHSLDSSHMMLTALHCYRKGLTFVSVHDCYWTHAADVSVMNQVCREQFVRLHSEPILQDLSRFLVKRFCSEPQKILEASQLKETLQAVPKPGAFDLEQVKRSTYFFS

[2] = target: T2, methylenetetrahydrofolate dehydrogenase 2 (MTHFD2) (human (endogenous in A549^cisR)) (UniProt P13995); experiment: co-IP; MTHFD2 co-immunoprecipitation of endogenous proteins in cisplatin-treated cancer cells (Fig. 4g)
T2 sequence: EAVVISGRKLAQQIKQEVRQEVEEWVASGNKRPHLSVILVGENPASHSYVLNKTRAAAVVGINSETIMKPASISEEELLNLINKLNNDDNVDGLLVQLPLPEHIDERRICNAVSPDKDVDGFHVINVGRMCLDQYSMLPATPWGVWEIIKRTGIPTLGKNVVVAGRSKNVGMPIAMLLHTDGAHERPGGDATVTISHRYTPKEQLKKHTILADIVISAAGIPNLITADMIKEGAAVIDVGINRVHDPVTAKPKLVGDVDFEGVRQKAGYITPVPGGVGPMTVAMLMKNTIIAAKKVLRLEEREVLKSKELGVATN

## RNA polymerase mitochondrial (POLRMT) (from UniProt O00411 42-1230) (enzyme)
[1]
  binding: binds

B1: methylenetetrahydrofolate dehydrogenase 2 (MTHFD2) (enzyme, UniProt P13995 36-350)
chain: T2 sequence
[1]
  binding: binds

B2: peroxiredoxin 3 (PRDX3) (enzyme, UniProt P30048 62-256)
chain: APAVTQHAPYFKGTAVVNGEFKDLSLDDFKGKYLVLFFYPLDFTFVCPTEIVAFSDKANEFHDVNCEVVAVSVDSHFSHLAWINTPRKNGGLGHMNIALLSDLTKQISRDYGVLLEGSGLALRGLFIIDPNGVIKHLSVNDLPVGRSVEETLRLVKAFQYVETHGEVCPANWTPDSPTIKPSPAASKEYFQKVNQ
[1]
  binding: binds

B3: dihydrolipoyl transacetylase (DLAT) (enzyme, UniProt P10515 87-647)
chain: T1 sequence
[2]
  binding: binds

From paper PMC12508156, “Non-canonical dihydrolipoyl transacetylase promotes chemotherapy resistance via mitochondrial tetrahydrofolate signaling” (Nature Communications, 2025)
